Screen size: about 300,000 compounds; about 5,400 (1.8%) were called active. This list was built around the results that the source calls inconclusive (neither active nor inactive); the mix of calls is not that of the screen. The call rests on the fitted dose curve; tested in HEK293 cells. A potency beside an inconclusive call is a rough fit, not a confirmed value.
assay: qHTS for inhibitors of binding or entry into cells for Marburg Virus; conditions: Marburg virus pseudotyped entry inhibition, cell reporter; activity change, negative = inhibition: at 37.8 µM (top of the series) unless noted
On the % scale 0 is the no-effect control and ±100 the full control effect; potency means the concentration at half of the fitted maximal effect.

Which “activity change, negative = inhibition” value does the source give for `O=[N+]([O-])c1ccccc1NCCOc1ccccc1` here?
Its value is inactive: -14.9%.

Which Potency does the source give for `CCn1c(SCC(=O)N2CCCc3ccccc32)nnc1-c1c[nH]c2ccccc12` here?
Its Potency is inconclusive: 20 µM [inhibitor, partial curve, poor fit].

For `CCc1ccc(-c2cc(C)no2)cc1S(=O)(=O)N1CCN(c2ccc(OC)cc2)CC1`, which Potency is on record?
Its Potency is inconclusive: 17.8 µM [inhibitor, partial curve, poor fit].

Which Potency does the source give for `CC(NC1CCCCC1)C(O)C12CC3CC(CC(C3)C1)C2` (configuration not stated) here?
The Potency was active: 7.3 µM.

Which Potency does the source give for `O=[N+]([O-])c1ccc2nc(-[n+]3c(-c4ccccc4)cc(-c4ccccc4)cc3-c3ccccc3)[nH]c2c1` here?
Its Potency is inconclusive: 28.2 µM [inhibitor, single point].

With `O=C(OCc1ccc([N+](=O)[O-])cc1)c1cc(S(=O)(=O)N2CCCCC2)ccc1N1CCOCC1` as the compound, how does the Potency read?
Its Potency is inconclusive: 5.62 µM [inhibitor, full curve, poor fit].

For `CCNC(=O)/C(C#N)=C/c1c(N2CCN(Cc3ccc4c(c3)OCO4)CC2)nc2c(C)cccn2c1=O`, which Potency is on record?
The Potency was inconclusive: 2.24 µM [inhibitor, partial curve, poor fit].

For `CCN1CCN(c2cc3c(nn2)Oc2ccccc2N3C)CC1`, which Potency is on record?
Its Potency is inconclusive: 29.1 µM [inhibitor, single point].

Which Potency does the source give for `O=C(NCc1ccco1)/C(=C/C=C\c1ccccc1)NC(=O)c1ccc(Br)o1` here?
Its Potency is inconclusive: 20.6 µM [inhibitor, single point].

For `CCOC(=O)Cn1c(C)cc(=O)c2ccccc21`, which “activity change, negative = inhibition” value is on record?
Its value is inactive: 0.0249%.

For `N/C(=N\OC(=O)c1ccc2ccccc2c1)c1ccccn1`, which Potency is on record?
Its Potency is inconclusive: 2.24 µM [inhibitor, full curve, poor fit].

For `CC(C)n1nnnc1-c1ccc(Cl)cc1`, which “activity change, negative = inhibition” value is on record?
The value was inactive: 3.86%.

Which Potency does the source give for `CNC(=S)NC1CC2CCCC(C1)N2Cc1ccc(C)cc1` (configuration not stated) here?
Its Potency is active: 4.61 µM.

For `N#Cc1ccc(Cn2c(=O)oc3ccccc32)cc1`, which Potency is on record?
The Potency was inconclusive: 5.62 µM [activator, single point].

For `COCCCn1c(=N)c(C(=O)NCC2CCCO2)cc2c(=O)n3cc(C)ccc3nc21` (configuration not stated), which “activity change, negative = inhibition” value is on record?
Its value is inactive: -6.75% [at 46.1 µM].

With `O=C(c1cc(COc2c(F)cccc2F)on1)N1CCN(C2CCCCC2)C(=O)C1` as the compound, how does the “activity change, negative = inhibition” value read?
Its value is inactive: -0.483% [at 46.1 µM].

Which Potency does the source give for `O=C(C1CCCO1)N1CCN(C(=S)Nc2cccc(Cl)c2)CC1` (configuration not stated) here?
Its Potency is inconclusive: 0.794 µM [inhibitor, partial curve, poor fit].

With `O=S(=O)(c1ccc2ccccc2c1)N1CCCOC1` as the compound, how does the Potency read?
Its Potency is inconclusive: 0.13 µM [inhibitor, full curve, poor fit].

For `Clc1ccccc1CN1CCC(Cc2ccccc2)CC1`, which Potency is on record?
The Potency was inconclusive: 35.5 µM [inhibitor, partial curve, poor fit].

With `Cc1ccc(NC(=O)C2CCCN(S(=O)(=O)c3ccc4c(c3)oc(=O)n4C)C2)cc1Cl` (configuration not stated) as the compound, how does the “activity change, negative = inhibition” value read?
Its value is inactive: 5.74% [at 46.1 µM].

Which “activity change, negative = inhibition” value does the source give for `CCOc1ccc(NC(=O)C(=O)c2cc(C)n(-c3cc(C)cc(C)c3)c2C)cc1` here?
The value was inactive: -15.2% [at 46.1 µM].

Which Potency does the source give for `COC(=O)C(C(C)=O)C1c2ccccc2C=C(C)N1C(=O)OC` (configuration not stated) here?
The Potency was “inactive”.

Which “activity change, negative = inhibition” value does the source give for `O=C(Nc1ccc2c(c1)C(=O)NC2=O)c1ccc2ncsc2c1` here?
Its value is inactive: 29.3% [at 46.1 µM].

Which Potency does the source give for `CCOc1ccc(-c2c(C)n(-c3ccc(OCC)cc3)c3[n+]2CCCCC3)cc1` here?
Its Potency is inconclusive: 0.316 µM [inhibitor, full curve, poor fit].

Which “activity change, negative = inhibition” value does the source give for `COc1ccc(-c2nsc(SCC(=O)NCc3ccc4c(c3)OCO4)n2)cc1` here?
The value was inactive: 6.19%.

For `CCOc1ccccc1NC=C1C(=O)OC(C)(C)OC1=O`, which Potency is on record?
The Potency was inconclusive: 29.1 µM [activator, single point].

Which Potency does the source give for `Cc1ccc(S(=O)(=O)N2CCCC2C(=O)OCc2ccccc2)cc1` (configuration not stated) here?
Its Potency is inconclusive: 7.94 µM [activator, partial curve].

With `Cc1ccc(Nc2nc(CSc3nnc(-c4ccncc4)n3C)cs2)cc1` as the compound, how does the Potency read?
The Potency was inconclusive: 3.55 µM [inhibitor, full curve].

With `C=CCN1C(=O)C(O)(CC(=O)c2ccc(OC)cc2OC)c2cc(Br)ccc21` (configuration not stated) as the compound, how does the Potency read?
The Potency was inconclusive: 0.224 µM [inhibitor, full curve, poor fit].

Which Potency does the source give for `Cc1ccc(S(=O)(=O)Nc2cccc(C(=O)NCC(c3ccccc3)N(C)C)c2)cc1F` (configuration not stated) here?
Its Potency is inconclusive: 14.1 µM [inhibitor, single point].

With `O=C(c1cnn(-c2cccc(F)c2)c1)c1ccccc1O` as the compound, how does the Potency read?
Its Potency is inconclusive: 4.47 µM [inhibitor, single point].

Which “activity change, negative = inhibition” value does the source give for `CCCN(CCC)C(=O)Cn1c(=O)n(-c2ccc(CC)cc2)c(=O)c2ccc(C(=O)NCCc3ccccc3)cc21` here?
Its value is inactive: 14.1% [at 46.1 µM].

Which Potency does the source give for `CCC(=NCCC(c1ccccc1)c1ccccc1)c1c(O)[nH]c(=O)[nH]c1=O` here?
Its Potency is inconclusive: 2.51 µM [inhibitor, partial curve, poor fit].

For `CC(=O)C(Cc1ccc(Cl)nc1)Cc1ccc(Cl)nc1`, which “activity change, negative = inhibition” value is on record?
Its value is inactive: 9.56% [at 46.1 µM].

Which Potency does the source give for `CCCn1c(=N)n(CC(=O)c2cccs2)c2ccccc21` here?
The Potency was inconclusive: 1.16 µM [activator, single point].

For `CC(C)CNC(=O)c1ccccc1C(=O)NC1(C(=O)NCC(C)C)CCCC1`, which “activity change, negative = inhibition” value is on record?
Its value is inactive: 11.5%.

With `CCOC(=O)c1c(C)n(CC)c2c1cc(O)c1ccccc12` as the compound, how does the Potency read?
Its Potency is inconclusive: 12.6 µM [activator, single point].

Which “activity change, negative = inhibition” value does the source give for `O=C(c1ccc(S(=O)(=O)N2CCCCC2)cc1)N1CCN=C1SCc1cccnc1` here?
The value was inactive: -2.01%.

Which Potency does the source give for `CC(C)c1ccc(NC(=O)CCN2C(=O)[C@@H]3Cc4ccccc4CN3C2=O)cc1` here?
The Potency was inconclusive: 0.891 µM [inhibitor, full curve, poor fit].

For `COc1ccccc1N1CCN(CC(O)COc2ccc(S(=O)(=O)N3CCOCC3)cc2)CC1` (configuration not stated), which Potency is on record?
Its Potency is inconclusive: 0.0046 µM [inhibitor, full curve, poor fit].

Which Potency does the source give for `COc1ccc(C(=O)C2CCCN(Cc3cnc(N4CCOCC4)s3)C2)cc1F` (configuration not stated) here?
Its Potency is inconclusive: 25.1 µM [inhibitor, single point].

For `CC1CCCCN1C(=O)Cn1cc(C=C2C(=O)N(C)C(=O)N(C)C2=O)c2ccccc21` (configuration not stated), which “activity change, negative = inhibition” value is on record?
The value was inactive: -13.7%.

With `COC(=O)C(Cc1ccc(OC(=O)c2ccc(C)cc2)cc1)N1Cc2ccccc2C1=O` (configuration not stated) as the compound, how does the “activity change, negative = inhibition” value read?
The value was inactive: -10.7% [at 46.1 µM].

With `O=C(Nc1ccccc1)C(=O)Nc1ccc2c(c1)N(C(=O)C1CC1)CCC2` as the compound, how does the Potency read?
Its Potency is inconclusive: 17.8 µM [inhibitor, single point].

For `O=C(Cc1ccccc1)NCCCc1ccccc1`, which Potency is on record?
Its Potency is inconclusive: 14.1 µM [activator, single point].

With `Cc1cc(N2CCN(c3nc4ccccc4s3)CC2)n2ncnc2n1` as the compound, how does the Potency read?
Its Potency is inconclusive: 11.6 µM [inhibitor, partial curve, poor fit].

For `CCN(CC)Cc1cc2ccccc2c2c1COC2`, which “activity change, negative = inhibition” value is on record?
The value was inactive: -1.07%.

Which “activity change, negative = inhibition” value does the source give for `O=C1CC(NNC(=O)c2ccccc2)C(=O)N1` (configuration not stated) here?
The value was inactive: -23.7%.

Which Potency does the source give for `COc1ccc(Nc2nc(N)nc(N)c2S(=O)(=O)c2ccccc2)cc1` here?
The Potency was inconclusive: 7.08 µM [inhibitor, full curve, poor fit].

With `O=c1c([N+](=O)[O-])cccn1Cc1ccccc1Cl` as the compound, how does the Potency read?
The Potency was inconclusive: 25.1 µM [inhibitor, single point].

For `CC(C)CC1(C)NC(=O)N(CC(=O)Nc2cccc(S(=O)(=O)N(C)c3ccccc3)c2)C1=O` (configuration not stated), which Potency is on record?
The Potency was inconclusive: 35.5 µM [inhibitor, partial curve, poor fit].

Which Potency does the source give for `O=C(Nc1ccc(N2C(=O)C3C4C=CC(C4)C3C2=O)cc1Cl)c1cccs1` (configuration not stated) here?
Its Potency is inconclusive: 7.94 µM [inhibitor, partial curve, poor fit].

For `Cc1ccc(-c2cc(-c3ccccc3)nc(N/N=C/c3cccnc3)n2)cc1`, which Potency is on record?
The Potency was inconclusive: 11.6 µM [inhibitor, partial curve, poor fit].

For `CCSc1nc(NCCN(C)C)c2c3c(sc2n1)COC(C)(CC)C3` (configuration not stated), which Potency is on record?
Its Potency is inconclusive: 11.2 µM [inhibitor, partial curve, poor fit].

For `COc1cc(/C=C/C(=O)OC(C)C(=O)Nc2ccc(Cl)cn2)ccc1OC(F)F` (configuration not stated), which Potency is on record?
Its Potency is inconclusive: 22.4 µM [inhibitor, single point].

Which Potency does the source give for `Cc1cc(NCCN2CCOCC2)n2nc(C)c(-c3ccc(Cl)cc3)c2n1` here?
The Potency was inconclusive: 4.47 µM [inhibitor, single point].

For `CCCn1c(=O)sc2cc(NC(=O)c3ccc(OC)c(Br)c3)ccc21`, which Potency is on record?
Its Potency is inconclusive: 35.5 µM [inhibitor, single point].

Which Potency does the source give for `CCCOc1ccc(CN(C(=O)Cc2coc3ccc(CC)cc23)C2CCS(=O)(=O)C2)cc1` (configuration not stated) here?
Its Potency is inconclusive: 7.94 µM [inhibitor, partial curve, poor fit].

For `CC(=O)Nc1ccc(NC(=O)c2ccc(-c3ccccc3Cl)o2)cc1`, which “activity change, negative = inhibition” value is on record?
The value was inactive: -19.7%.

Which Potency does the source give for `Cc1ccc(NC(=O)COC(=O)C(NS(=O)(=O)c2ccc(Cl)cc2)C(C)O)cc1C` (configuration not stated) here?
The Potency was inconclusive: 12.6 µM [inhibitor, partial curve, poor fit].

For `CCOCCCNC(=O)C1CCN(c2cc(C)nc3c(-c4ccc(OC)c(OC)c4)c(C)nn23)CC1`, which Potency is on record?
Its Potency is “inactive”.

Which Potency does the source give for `O=C(Nc1nc(-c2ccncc2)cs1)C1c2ccccc2Oc2ccccc21` here?
The Potency was inconclusive: 32.6 µM [inhibitor, single point].

For `CCC(=O)N1CCc2cc(S(=O)(=O)CCC(=O)N3CCN(c4ccc(Cl)cc4)CC3)ccc21`, which Potency is on record?
The Potency was inconclusive: 11.2 µM [inhibitor, partial curve, poor fit].

With `Cc1cc(C)c(S(=O)(=O)N2CCN(C(=O)CCOc3ccccc3C)CC2)c(C)c1` as the compound, how does the “activity change, negative = inhibition” value read?
Its value is inactive: -14.6%.

Which Potency does the source give for `CCN(CC)P(=O)(Nc1ccc(C)cc1Br)c1ccc(N(C)C)cc1NC(=O)c1ccco1` (configuration not stated) here?
The Potency was active: 11.2 µM.

With `O=C(CSc1nc2c(sc3ccccc32)c(=O)n1CCCN1CCCC1)NCc1ccccc1` as the compound, how does the Potency read?
The Potency was inconclusive: 1 µM [inhibitor, full curve, poor fit].

For `CC1CC(=Cc2ccc(N)cc2)C(=O)O1` (configuration not stated), which Potency is on record?
Its Potency is inconclusive: 22.4 µM [activator, partial curve, poor fit].
